From patent publication US9062013B2, “Positive allosteric modulators of the α7 nicotinic acetylcholine receptor and uses thereof” (Bionomics Limited, priority 2011, dated 2015)
Some entries share one result that the patent states for a list of compounds.

The chains behind the UniProt entries cited, without tags or fusion partners. Residues count along the entry.
UniProt P36544, 23-502: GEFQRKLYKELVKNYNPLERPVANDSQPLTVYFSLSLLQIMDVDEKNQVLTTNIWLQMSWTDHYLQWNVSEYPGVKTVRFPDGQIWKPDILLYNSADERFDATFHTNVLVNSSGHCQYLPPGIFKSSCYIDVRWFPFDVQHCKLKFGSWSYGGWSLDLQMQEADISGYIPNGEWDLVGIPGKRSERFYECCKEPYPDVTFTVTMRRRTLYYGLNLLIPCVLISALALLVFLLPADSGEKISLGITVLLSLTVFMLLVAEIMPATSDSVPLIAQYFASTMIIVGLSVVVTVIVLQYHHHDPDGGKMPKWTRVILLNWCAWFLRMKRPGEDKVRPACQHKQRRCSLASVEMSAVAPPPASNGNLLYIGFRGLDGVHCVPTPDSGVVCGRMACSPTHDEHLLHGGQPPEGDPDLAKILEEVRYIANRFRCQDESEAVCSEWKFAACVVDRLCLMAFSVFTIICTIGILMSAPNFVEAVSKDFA

Target: T1, α7nACh receptors (Homo sapiens, UniProt P36544)
T1 construct: expressed in transfected cells; host or cells: GH4C1 (rat pituitary cell line)
Assay: CellLux fluorescence-based calcium assay for positive allosteric modulation of α7nAChR
Conditions: GH4C1 cell line stably expressing α7nACh receptors; ACh at EC20 concentration; tested at 0.03-10 uM

SMILES: COc1ncccc1NC(=O)[C@@H]1[C@@H](c2ccc(S(N)(=O)=O)cc2)C1(C)C (relative stereo) [Example 13b, trans-N-(2-methoxypyridin-3-yl)-2,2-dimethyl-3-(4-sulfamoylphenyl)cyclopropanecarboxamide]
- compound concentrations giving significant potentiation of ACh: < 10 µM

SMILES: NS(=O)(=O)c1ccc([C@@H]2[C@@H](C(=O)Nc3ccc(C(F)(F)F)cc3Cl)C23CCCC3)cc1 (relative stereo) [Example 15b, trans-2-(4-sulfamoylphenyl)-N-[2-chloro-4-(trifluoromethyl)phenyl]spiro[2.4]heptane-1-carboxamide]
- compound concentrations giving significant potentiation of ACh: < 10 µM

SMILES: COc1cc(OC)c(NC(=O)[C@@H]2[C@@H](c3ccc(S(N)(=O)=O)cc3)C2(C)C)cc1Cl (relative stereo) [Example 3b, trans-N-(5-Chloro-2,4-dimethoxyphenyl)-2,2-dimethyl-3-(4-sulfamoylphenyl)cyclopropanecarboxamide]
- compound concentrations giving significant potentiation of ACh: < 10 µM

SMILES: COc1ccc(NC(=O)[C@@H]2[C@@H](c3ccc(S(N)(=O)=O)cc3)C23CCCC3)c(OC)n1 (relative stereo) [Example 8b, trans-N-(2,6-Dimethoxypyridin-3-yl)-2-(4-sulfamoylphenyl)spiro[2.4]heptane-1-carboxamide]
- compound concentrations giving significant potentiation of ACh: < 10 µM

SMILES: COc1ccc(Cl)cc1NC(=O)[C@@H]1[C@@H](c2ccc(S(N)(=O)=O)c(C)c2)C1(C)C (relative stereo) [Example 17b, trans-N-(5-Chloro-2-methoxyphenyl)-2,2-dimethyl-3-(3-methyl-4-sulfamoyl-phenyl)-cyclopropane carboxamide]
- compound concentrations giving significant potentiation of ACh: < 10 µM

SMILES: COc1ccc(Cl)cc1NC(=O)[C@@H]1[C@@H](c2ccc(S(N)(=O)=O)cc2)C12CCCCC2 (relative stereo) [Example 7b, trans-N-(5-Chloro-2-methoxyphenyl)-2-(4-sulfamoylphenyl)spiro[2.5]octane-1-carboxamide]
- compound concentrations giving significant potentiation of ACh: < 10 µM

SMILES: Cc1cc([C@@H]2[C@@H](C(=O)Nc3ccc(F)c(F)c3)C2(C)C)ccc1S(N)(=O)=O (relative stereo) [Example 16e, trans-N-(3,4-Difluoro-phenyl)-2,2-dimethyl-3-(3-methyl-4-sulfamoyl-phenyl)-cyclopropane carboxamide]
- compound concentrations giving significant potentiation of ACh: < 10 µM

SMILES: COc1ccc(Cl)cc1NC(=O)[C@@H]1[C@@H](c2ccc(Br)cc2)C1(C)C (relative stereo) [Example 12c, trans-N-(5-Chloro-2-methoxyphenyl)-3-(4-bromophenyl)-2,2-dimethylcyclopropanecarboxamide]
- compound concentrations giving significant potentiation of ACh: < 10 µM

SMILES: COc1ccc(Cl)cc1NC(=O)[C@@H]1[C@@H](c2ccc(S(N)(=O)=O)cc2)C1(C)C (relative stereo) [Example 4b, trans-N-(5-Chloro-2-methoxyphenyl)-2,2-dimethyl-3-(4-sulfamoylphenyl)cyclopropanecarboxamide]
- compound concentrations giving significant potentiation of ACh: < 10 µM

SMILES: CCC1(CC)[C@H](C(=O)Nc2cc(Cl)ccc2OC)[C@H]1c1ccccc1 (relative stereo) [Example 14c, trans-N-(5-Chloro-2-methoxyphenyl)-2,2-diethyl-3-phenylcyclopropanecarboxamide]
- compound concentrations giving significant potentiation of ACh: < 10 µM

SMILES: COc1ccc(Cl)cc1NC(=O)[C@@H]1[C@@H](c2ccc(S(=O)(=O)N(C)C)cc2)C1(C)C (relative stereo) [Example 11b, trans-N-(5-Chloro-2-methoxyphenyl)-3-[4-(dimethylsulfamoyl)phenyl]-2,2-dimethylcyclopropanecarboxamide]
- compound concentrations giving significant potentiation of ACh: < 10 µM

SMILES: COc1ccc(Cl)cc1NC(=O)[C@@H]1[C@@H](c2ccc(S(N)(=O)=O)cc2)C12CCCC2 (relative stereo) [Example 6b, trans-N-(5-Chloro-2-methoxyphenyl)-2-(4-sulfamoylphenyl)spiro[2.4]heptane-1-carboxamide]
- compound concentrations giving significant potentiation of ACh: < 10 µM

SMILES: CC1(C)[C@H](C(=O)Nc2cc(C(F)(F)F)n[nH]2)[C@H]1c1ccc(S(N)(=O)=O)cc1 (relative stereo) [Example 2b, 2,2-Dimethyl-trans-3-(4-sulfamoylphenyl)-N-(3-(trifluoromethyl)-1H-pyrazol-5-yl)cyclopropanecarboxamide]
- compound concentrations giving significant potentiation of ACh: < 10 µM

SMILES: COc1ccc(Cl)cc1NC(=O)[C@@H]1[C@@H](c2ccc3c(c2)OC(F)(F)O3)C1(C)C (relative stereo) [Example 18d, trans-N-(5-Chloro-2-methoxyphenyl)-3-(2,2-difluoro-benzo[1,3]dioxol-5-yl)-2,2-dimethyl-cyclopropane carboxamide]
- compound concentrations giving significant potentiation of ACh: < 10 µM

SMILES: Cc1cnc(NC(=O)[C@@H]2[C@@H](c3ccc(S(N)(=O)=O)cc3)C2(C)C)s1 [Example 1b, (1R,3R)-2,2-dimethyl-N-(5-methylthiazol-2-yl)-3-(4-sulfamoylphenyl)cyclopropane carboxamide]
- compound concentrations giving significant potentiation of ACh: < 10 µM
